Experimental data published in article PMC7069944, “Amino acid levels determine metabolism and CYP450 function of hepatocytes and hepatoma cell lines” (Nature Communications, 2020).

What was measured:
[1] = system: cells cultured in AAGLY medium; experiment: Single-exposure toxicity, summary value of this study (Boon et al); format: cell-based; details: Homo sapiens, single 24 h exposure
Method: To evaluate the ability to predict hepatotoxicity, we adapted the differentiation assays to a 384-well format. […] As a readout, we evaluated cell viability by resazurin conversion and correlated the results to therapeutic doses (Cmax values).
PSCs were differentiated in a 384-well format. […] As a negative control, 41 wells were left untreated. HepG2 were seeded at 40,000 cells per well. […] Cells were fixed with 4% PFA. […] Drugs were administrated after 8 h of attachment.

[2] = system: Spheroid of immortalized PHHs; set-up: method as in ref 10 (a number printed in a supplementary file, which may have a reference list of its own: not looked up in the article's list); details: 24 h, ATP; cited from earlier work
[3] = system: Spheroid of PHHs; set-up: method as in ref 3 (a number printed in a supplementary file, which may have a reference list of its own: not looked up in the article's list); details: 48h, ATP; cited from earlier work
[4] = system: Co-culture of PHHs and fibroblasts; set-up: method as in ref 4 (a number printed in a supplementary file, which may have a reference list of its own: not looked up in the article's list); details: 24h, ATP; cited from earlier work

CCCCc1oc2ccccc2c1C(=O)c1cc(I)c(OCCN(CC)CC)c(I)c1 [Amiodarone, amiodarone]
IC50 [1]: 5 to 10 µM | IC50 [2]: 260 µM | IC50 [3]: > 100 µM | IC50 [4]: 33 µM
